Assay results: the RNAGym collection of RNA variant scans (doi:10.1126/science.aae0568)
This sample is rich in variants without activity.

B1: tRNA (parent)
chain: GUUCCGUUGGCGUAAUGGUAACGCGUCUCCCUCCUAAGGAGAAGACUGCGGGUUCGAGUCCCGUACGGAACG

Variants of: B1
Test: yeast fitness relative to wild type (ratio to wild type); higher = fitter; tRNA-Arg(CCU), competitive growth, 37 C, YPD
How it was run: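 Gene amplicons from the start population and from each of six end populations were read by 100-nucleotide paired-end sequencing. Those end populations came from pooled Saccharomyces cerevisiae strains carrying tRNA-Arg(CCU) gene variants at the native locus, competed in YPD at 37°C for 24 hours. Fitness relative to wild type was worked out from changes in genotype frequencies. Genotypes needed ≥ 100 starting reads, and estimates < 0.5 were set to 0.5.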

Row | Variant | yeast fitness
1 | G12A G25A U32C | 0.749
2 | G12A G41U | 0.819
3 | G12A G48C U59A | ≤ 0.5
4 | G12A G51C | 0.662
5 | G12A G67C | 0.848
6 | G12A U13C C22A U26C | ≤ 0.5
7 | G12A U13C U16A U19G G23A G58A G68A | ≤ 0.5
8 | G12A U19C C33U C34U G38C | ≤ 0.5
9 | G12A U19C G23C C62A | ≤ 0.5
10 | G12A U26C A36C G56C | ≤ 0.5
11 | G12A U28A A37G C46U | ≤ 0.5
12 | G12A U28A C31A C33U A37C G50A A65U | ≤ 0.5
13 | G12A U28A U54C A70G | ≤ 0.5
14 | G12A U28C C61G | ≤ 0.5
15 | G12C A14C U26C A40G G56A C66U A69U | ≤ 0.5
16 | G12C A14G C22U U54C C61U | ≤ 0.5
17 | G12C A15C A20U A70C | ≤ 0.5
18 | G12C A15G A37U A40G U54C A70G | ≤ 0.5
19 | G12C A20G C46G | 0.548
20 | G12C A36U U64A | ≤ 0.5
21 | G12C A42G A45G | 0.627
22 | G12C A43G G51C U59C C62G | ≤ 0.5
23 | G12C A57C C66G | ≤ 0.5
24 | G12C C22G C55U | 0.581

Row | Variant | yeast fitness
25 | G12C C24U C46U C49G C62A | ≤ 0.5
26 | G12C C27A C29U | ≤ 0.5
27 | G12C C27U G50A | ≤ 0.5
28 | G12C C29G C31A C60G | ≤ 0.5
29 | G12C C29G G48C | ≤ 0.5
30 | G12C C29U G38C | ≤ 0.5
31 | G12C C30G A37U G41A G58C | 0.581
32 | G12C C31A A40C C62U | ≤ 0.5
33 | G12C C34A G44A C46U G68A | ≤ 0.5
34 | G12C C34A G63A | ≤ 0.5
35 | G12C C34G A36U C62A | ≤ 0.5
36 | G12C C46A A70G | ≤ 0.5
37 | G12C G18C A70U | ≤ 0.5
38 | G12C G18C C27G G63C | ≤ 0.5
39 | G12C G18C C55A A69C | ≤ 0.5
40 | G12C G18C U35A G39A U53A | ≤ 0.5
41 | G12C G25A A45C C66U | ≤ 0.5
42 | G12C U13G C34G | ≤ 0.5
43 | G12C U19A C27G A65C | 0.557
44 | G12C U26A C33A | ≤ 0.5
45 | G12C U26A C33A C34G A65U | ≤ 0.5
46 | G12C U26G C27U C30G | ≤ 0.5
47 | G12C U32G C33G A57U | ≤ 0.5
48 | G12C U35G A37G A65C | ≤ 0.5

Row | Variant | yeast fitness
49 | U13A A14C C22A A36C | ≤ 0.5
50 | U13A A15C U54G C66G G67C | ≤ 0.5
51 | U13A A20G C22G C24G A36U A40C G51C | ≤ 0.5
52 | U13A A21G A42C C62U | ≤ 0.5
53 | U13A A40C C60G | ≤ 0.5
54 | U13A A40G A42U G68C A70C | ≤ 0.5
55 | U13A C22A A36U G68C | ≤ 0.5
56 | U13A C22U C24G C49U C55G G67C A70G | ≤ 0.5
57 | U13A C24G G25A | ≤ 0.5
58 | U13A C29A C31G A65U | ≤ 0.5
59 | U13A C29A C31G C55G C66A | ≤ 0.5
60 | U13A C30A C31U A43C | 0.942
61 | U13A C33G A43G C66U | ≤ 0.5
62 | U13A C34G G50A C60G C61U | ≤ 0.5
63 | U13A G18A A69U | 0.618
64 | U13A G18C C27U | ≤ 0.5
65 | U13A G23A A37U G48C | ≤ 0.5
66 | U13A G38U G67C | ≤ 0.5
67 | U13A G52C C62G | ≤ 0.5
68 | U13A U32G U47A U64A A65C G67A | ≤ 0.5
69 | U13A U47C U64A C66U G68C | ≤ 0.5
70 | U13A U59A | 0.827
71 | U13C A14G A45G | ≤ 0.5
72 | U13C A14U C46U G50C | ≤ 0.5

Row | Variant | yeast fitness
73 | U13C A15G C62A | ≤ 0.5
74 | U13C A20G C30U C33U A69U A70G | ≤ 0.5
75 | U13C A20G C31U | 0.777
76 | U13C A20G C46A C62U A70U | ≤ 0.5
77 | U13C A20U C34U | ≤ 0.5
78 | U13C A21C C27U G63A A65G | ≤ 0.5
79 | U13C A21G A36U A57G | ≤ 0.5
80 | U13C A37C G50A U53A C61U | ≤ 0.5
81 | U13C A42G A57U U59A A69G | ≤ 0.5
82 | U13C A57U C61U | ≤ 0.5
83 | U13C A70C | 1.09
84 | U13C C22G A36U | ≤ 0.5
85 | U13C C24U C34U A69C | ≤ 0.5
86 | U13C C27G U35A A43C | ≤ 0.5
87 | U13C C27U C31A U35C C55G C66U A70C | ≤ 0.5
88 | U13C C27U U32C A69U | ≤ 0.5
89 | U13C C29A C60G | ≤ 0.5
90 | U13C C29G A40C A42C | ≤ 0.5
91 | U13C C29G A40C A42C A70U | ≤ 0.5
92 | U13C C29U | 0.831
93 | U13C C34G A43U | ≤ 0.5
94 | U13C C49G U59A | ≤ 0.5
95 | U13C G18U C22A C33A | ≤ 0.5
96 | U13C U16A U19A C31A G39C | ≤ 0.5

Row | Variant | yeast fitness
97 | U13C U16C U35C G56C U64C | ≤ 0.5
98 | U13C U19G C22G C34U | ≤ 0.5
99 | U13C U28C C55A | ≤ 0.5
100 | U13G C22U C31A C49A G67C | ≤ 0.5
101 | U13G C31G A43U C46G A70U | ≤ 0.5
102 | U13G G18C U47G A69C | ≤ 0.5
103 | U13G U28A C30A | ≤ 0.5
104 | U13G U32A C46A C49A | ≤ 0.5
105 | U13G U32A C60A | ≤ 0.5
106 | U13G U32A G48C C61U A69G | ≤ 0.5
107 | U13G U35G A40G A42G | ≤ 0.5
108 | A14C A20C G67A | ≤ 0.5
109 | A14C A20G C27G | ≤ 0.5
110 | A14C A20U A21U U26A C61U | ≤ 0.5
111 | A14C A20U C31G | ≤ 0.5
112 | A14C A21G | 0.713
113 | A14C A21G C22U C33G G41C G56C G58A G63C A65U | ≤ 0.5
114 | A14C A21G G25A C33U C46A C55A | ≤ 0.5
115 | A14C A21G G67A | ≤ 0.5
116 | A14C A36G G41A G48C U59C A70C | ≤ 0.5
117 | A14C A40G A57C | ≤ 0.5
118 | A14C A42U C55G U59A | 0.612
119 | A14C A42U C55U | ≤ 0.5
120 | A14C A43U A45G G52C | ≤ 0.5

Row | Variant | yeast fitness
121 | A14C A57U C61U | ≤ 0.5
122 | A14C A69C | 0.654
123 | A14C C22G U26G A36U A45U C61A | ≤ 0.5
124 | A14C C22U C34U G41A C60G A65G | ≤ 0.5
125 | A14C C24A C61A | ≤ 0.5
126 | A14C C24U A36G | 0.591
127 | A14C C27G C33A A45U G63C | ≤ 0.5
128 | A14C C27G U32C C46G A65G | ≤ 0.5
129 | A14C C27U C55G A70U | 0.613
130 | A14C C30U G39C | ≤ 0.5
131 | A14C C30U G41C G50A A69U | ≤ 0.5
132 | A14C C31G C62A A65U C66U | 0.506
133 | A14C C33A C55G C60G | ≤ 0.5
134 | A14C C33G A43G C55U | ≤ 0.5
135 | A14C C49G G68U | ≤ 0.5
136 | A14C G23A A45U C61U | 0.782
137 | A14C G25C G48A C49U | ≤ 0.5
138 | A14C G41A G56C C62G | ≤ 0.5
139 | A14C G48C C49G | ≤ 0.5
140 | A14C G51C | 0.53
141 | A14C G51C A70U | ≤ 0.5
142 | A14C U16A U26C | ≤ 0.5
143 | A14C U19A A21G C31U | ≤ 0.5
144 | A14C U26A C29U C49U C62G G68C | 0.519

Row | Variant | yeast fitness
145 | A14C U26A G68A | ≤ 0.5
146 | A14C U28C C61A | ≤ 0.5
147 | A14G A15C C30U | ≤ 0.5
148 | A14G A15G A42C G52C | ≤ 0.5
149 | A14G A15U A37C A43U | ≤ 0.5
150 | A14G A20C A36U G39C | ≤ 0.5
151 | A14G A20C A40C A45G C46A | ≤ 0.5
152 | A14G A20C C30U C66U | ≤ 0.5
153 | A14G A20C C46G | 0.635
154 | A14G A20G C33U G52A G63A | ≤ 0.5
155 | A14G A21C | 0.866
156 | A14G A21C C30G G63A | ≤ 0.5
157 | A14G A21U A43G U53C C55U | ≤ 0.5
158 | A14G A37U G68C | ≤ 0.5
159 | A14G A40C C62G | ≤ 0.5
160 | A14G A45C G67C | ≤ 0.5
161 | A14G A69U A70C | 0.726
162 | A14G C22U A37U A65U | ≤ 0.5
163 | A14G C22U C29A | ≤ 0.5
164 | A14G C24A A57U C60A G68C | ≤ 0.5
165 | A14G C24G C31U C55A G68C | ≤ 0.5
166 | A14G C24G C31U C66G | ≤ 0.5
167 | A14G C24G G44C G58C G68U | ≤ 0.5
